# The supplement of paper PMC8728848
# The other results are listed elsewhere or left out.
# B1: SP15308F-bth-333-19-333 (Bacteroides thetaiotaomicron) (protein)
# chain: SCNNEWESEQYVQMVSFKAPVNAQGVTPIYIRYKPEGKVTYQLPLIVSGSTMNSKDLNVHVGLDLDTLDVLNVEHFGSRKELFFKPLENKYYEFPETVQIPAGECTSLLPIDFALKDLDQVDKWVLPLAIQSNDPSHNYQANPRKFYRRAMLRISPFNDYSGQYSATAYKVYFKGNEKEAIVPEYHTSYVIDDKTIFFYAGLIDIDRLDRKYYKIKFEFTEEKIDLQTRKLKISSDNEDINLVVKGQPSYTVEEEMDATRPYLKHIYVTINNLEYEFTDYTSVPGYPLEYVVKGSLTMERKINTQIPDEDQAIEW
# Assays:
# Test in all cases: glycan array binding signal (z-score within array); higher = stronger binding
# Conditions in all cases: glycan notation: IUPAC condensed, linker removed
# [1] = target: Neu5Ac(a2-3)GalNAc
# Method in brief: (§1)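 The binding signal is a Z-score computed within each array and averaged over linkers. Arrays of the same protein sequence at different concentrations or buffers were also averaged together. Data originate from 3228 arrays in the Consortium for Functional Glycomics database, kept only where the protein sequence was available.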
# [2] = target: Neu5Ac(a2-3)GalNAc(b1-4)GlcNAc
# Method in brief: as §1
# [3] = target: Neu5Ac(a2-3)[GalNAc(b1-4)]Gal(b1-4)Glc
# Method in brief: as §1
# [4] = target: Neu5Ac(a2-3)[GalNAc(b1-4)]Gal(b1-4)GlcNAc
# Method in brief: as §1
# [5] = target: Neu5Ac(a2-3)[GalNAc(b1-4)]Gal(b1-4)GlcNAc(b1-3)GalNAc
# Method in brief: as §1
# [6] = target: Neu5Ac(a2-3)[Neu5Ac(a2-6)]GalNAc
# Method in brief: as §1
# [7] = target: Neu5Ac(a2-6)Gal
# Method in brief: as §1
# [8] = target: Neu5Ac(a2-6)Gal(b1-3)GlcNAc(b1-3)[Gal(b1-4)GlcNAc(b1-6)]Gal(b1-4)Glc
# Method in brief: as §1
# [9] = target: Neu5Ac(a2-6)Gal(b1-4)Glc
# Method in brief: as §1
# [10] = target: Neu5Ac(a2-6)Gal(b1-4)GlcNAc
# Method in brief: as §1
# [11] = target: Neu5Ac(a2-6)Gal(b1-4)GlcNAc(b1-2)Man
# Method in brief: as §1
# [12] = target: Neu5Ac(a2-6)Gal(b1-4)GlcNAc(b1-2)Man(a1-3)Man(b1-4)GlcNAc(b1-4)GlcNAc
# Method in brief: as §1
# [13] = target: Neu5Ac(a2-6)Gal(b1-4)GlcNAc(b1-2)Man(a1-3)[Gal(b1-4)GlcNAc(b1-2)Man(a1-6)]Man(b1-4)GlcNAc(b1-4)GlcNAc
# Method in brief: as §1
# [14] = target: Neu5Ac(a2-6)Gal(b1-4)GlcNAc(b1-2)Man(a1-3)[GlcNAc(b1-2)Man(a1-6)]Man(b1-4)GlcNAc(b1-4)GlcNAc
# Method in brief: as §1
# [15] = target: Neu5Ac(a2-6)Gal(b1-4)GlcNAc(b1-2)Man(a1-3)[GlcNAc(b1-4)][Neu5Ac(a2-6)Gal(b1-4)GlcNAc(b1-2)Man(a1-6)]Man(b1-4)GlcNAc(b1-4)GlcNAc
# Method in brief: as §1
# [16] = target: Neu5Ac(a2-6)Gal(b1-4)GlcNAc(b1-2)Man(a1-3)[Man(a1-6)]Man(b1-4)GlcNAc(b1-4)GlcNAc
# Method in brief: as §1
# [17] = target: Neu5Ac(a2-6)Gal(b1-4)GlcNAc(b1-2)Man(a1-3)[Neu5Ac(a2-3)Gal(b1-4)GlcNAc(b1-2)Man(a1-6)]Man(b1-4)GlcNAc(b1-4)GlcNAc
# Method in brief: as §1
# [18] = target: Neu5Ac(a2-6)Gal(b1-4)GlcNAc(b1-2)Man(a1-3)[Neu5Ac(a2-6)Gal(b1-4)GlcNAc(b1-2)Man(a1-6)]Man(b1-4)GlcNAc(b1-4)GlcNAc
# Method in brief: as §1
# [19] = target: Neu5Ac(a2-6)Gal(b1-4)GlcNAc(b1-2)Man(a1-3)[Neu5Ac(a2-6)Gal(b1-4)GlcNAc(b1-2)Man(a1-6)]Man(b1-4)GlcNAc(b1-4)[Fuc(a1-6)]GlcNAc
# Method in brief: as §1
# [20] = target: Neu5Ac(a2-6)Gal(b1-4)GlcNAc(b1-2)Man(a1-6)Man(b1-4)GlcNAc(b1-4)GlcNAc
# Method in brief: as §1
# [21] = target: Neu5Ac(a2-6)Gal(b1-4)GlcNAc(b1-2)Man(a1-6)[Gal(b1-4)GlcNAc(b1-2)Man(a1-3)]Man(b1-4)GlcNAc(b1-4)GlcNAc
# Method in brief: as §1
# [22] = target: Neu5Ac(a2-6)Gal(b1-4)GlcNAc(b1-2)Man(a1-6)[GlcNAc(b1-2)Man(a1-3)]Man(b1-4)GlcNAc(b1-4)GlcNAc
# Method in brief: as §1
# [23] = target: Neu5Ac(a2-6)Gal(b1-4)GlcNAc(b1-2)Man(a1-6)[Man(a1-3)]Man(b1-4)GlcNAc(b1-4)GlcNAc
# Method in brief: as §1
# [24] = target: Neu5Ac(a2-6)Gal(b1-4)GlcNAc(b1-2)[Neu5Ac(a2-6)Gal(b1-4)GlcNAc(b1-4)]Man(a1-3)[GlcNAc(b1-4)][Neu5Ac(a2-6)Gal(b1-4)GlcNAc(b1-2)[Neu5Ac(a2-6)Gal(b1-4)GlcNAc(b1-6)]Man(a1-6)]Man(b1-4)GlcNAc(b1-4)GlcNAc
# Method in brief: as §1
# [25] = target: Neu5Ac(a2-6)Gal(b1-4)GlcNAc(b1-2)[Neu5Ac(a2-6)Gal(b1-4)GlcNAc(b1-4)]Man(a1-3)[GlcNAc(b1-4)][Neu5Ac(a2-6)Gal(b1-4)GlcNAc(b1-4)Man(a1-6)]Man(b1-4)GlcNAc(b1-4)GlcNAc
# Method in brief: as §1
# [26] = target: Neu5Ac(a2-6)Gal(b1-4)GlcNAc(b1-2)[Neu5Ac(a2-6)Gal(b1-4)GlcNAc(b1-6)]Man(a1-6)[Neu5Ac(a2-6)Gal(b1-4)GlcNAc(b1-2)Man(a1-3)][GlcNAc(b1-4)]Man(b1-4)GlcNAc(b1-4)GlcNAc
# Method in brief: as §1
# [27] = target: Neu5Ac(a2-6)Gal(b1-4)GlcNAc(b1-3)Gal(b1-3)GlcNAc
# Method in brief: as §1
# [28] = target: Neu5Ac(a2-6)Gal(b1-4)GlcNAc(b1-3)Gal(b1-4)GlcNAc
# Method in brief: as §1
# [29] = target: Neu5Ac(a2-6)Gal(b1-4)GlcNAc(b1-3)Gal(b1-4)GlcNAc(b1-2)Man(a1-3)[Neu5Ac(a2-6)Gal(b1-4)GlcNAc(b1-3)Gal(b1-4)GlcNAc(b1-2)Man(a1-6)]GalNAc
# Method in brief: as §1
# [30] = target: Neu5Ac(a2-6)Gal(b1-4)GlcNAc(b1-3)Gal(b1-4)GlcNAc(b1-3)Gal(b1-4)GlcNAc
# Method in brief: as §1
# [31] = target: Neu5Ac(a2-6)Gal(b1-4)GlcNAc(b1-3)Gal(b1-4)GlcNAc(b1-3)Gal(b1-4)GlcNAc(b1-2)Man(a1-3)[Neu5Ac(a2-6)Gal(b1-4)GlcNAc(b1-3)Gal(b1-4)GlcNAc(b1-3)Gal(b1-4)GlcNAc(b1-2)Man(a1-6)]GalNAc
# Method in brief: as §1
# [32] = target: Neu5Ac(a2-6)Gal(b1-4)GlcNAc(b1-3)Gal(b1-4)GlcNAc(b1-3)GalNAc
# Method in brief: as §1
# [33] = target: Neu5Ac(a2-6)Gal(b1-4)GlcNAc(b1-3)Gal(b1-4)GlcNAc(b1-3)[Neu5Ac(a2-6)Gal(b1-4)GlcNAc(b1-3)Gal(b1-4)GlcNAc(b1-6)]GalNAc
# Method in brief: as §1
# [34] = target: Neu5Ac(a2-6)Gal(b1-4)GlcNAc(b1-3)Gal(b1-4)GlcNAc(b1-6)[Gal(b1-3)]GalNAc
# Method in brief: as §1
# [35] = target: Neu5Ac(a2-6)Gal(b1-4)GlcNAc(b1-3)Gal(b1-4)[Fuc(a1-3)]GlcNAc(b1-3)Gal(b1-4)[Fuc(a1-3)]GlcNAc
# Method in brief: as §1
# [36] = target: Neu5Ac(a2-6)Gal(b1-4)GlcNAc(b1-3)GalNAc
# Method in brief: as §1
# [37] = target: Neu5Ac(a2-6)Gal(b1-4)GlcNAc(b1-3)[Neu5Ac(a2-6)Gal(b1-4)GlcNAc(b1-6)]GalNAc
# Method in brief: as §1
# [38] = target: Neu5Ac(a2-6)Gal(b1-4)GlcNAc(b1-6)GalNAc
# Method in brief: as §1
# [39] = target: Neu5Ac(a2-6)Gal(b1-4)GlcNAc(b1-6)[Gal(b1-3)GlcNAc(b1-3)]Gal(b1-4)Glc
# Method in brief: as §1
# [40] = target: Neu5Ac(a2-6)Gal(b1-4)GlcNAc(b1-6)[Gal(b1-3)]GalNAc
# Method in brief: as §1
# [41] = target: Neu5Ac(a2-6)Gal(b1-4)GlcNAc6S
# Method in brief: as §1
# [42] = target: Neu5Ac(a2-6)GalNAc
# Method in brief: as §1
# [43] = target: Neu5Ac(a2-6)GalNAc(b1-4)GlcNAc
# Method in brief: as §1
# [44] = target: Neu5Ac(a2-6)GalNAc(b1-4)GlcNAc6S
# Method in brief: as §1
# [45] = target: Neu5Ac(a2-6)GlcNAc(b1-4)GlcNAc
# Method in brief: as §1
binder,measurement,setting,value
B1,glycan array binding signal (z-score),[1],-0.649
same,glycan array binding signal (z-score),[2],0.215
same,glycan array binding signal (z-score),[3],-1.38
same,glycan array binding signal (z-score),[4],-0.606
same,glycan array binding signal (z-score),[5],0.281
same,glycan array binding signal (z-score),[6],-0.854
same,glycan array binding signal (z-score),[7],-0.241
same,glycan array binding signal (z-score),[8],-0.524
same,glycan array binding signal (z-score),[9],-0.555
same,glycan array binding signal (z-score),[10],-0.599
same,glycan array binding signal (z-score),[11],-0.15
same,glycan array binding signal (z-score),[12],-0.917
same,glycan array binding signal (z-score),[13],0.208
same,glycan array binding signal (z-score),[14],1.89
same,glycan array binding signal (z-score),[15],-1.02
same,glycan array binding signal (z-score),[16],-0.333
same,glycan array binding signal (z-score),[17],-0.439
same,glycan array binding signal (z-score),[18],0
same,glycan array binding signal (z-score),[19],0.193
same,glycan array binding signal (z-score),[20],-0.588
same,glycan array binding signal (z-score),[21],0.535
same,glycan array binding signal (z-score),[22],0.292
same,glycan array binding signal (z-score),[23],-0.056
same,glycan array binding signal (z-score),[24],-0.18
same,glycan array binding signal (z-score),[25],-1.16
same,glycan array binding signal (z-score),[26],0.627
same,glycan array binding signal (z-score),[27],-0.227
same,glycan array binding signal (z-score),[28],-1.1
same,glycan array binding signal (z-score),[29],3.27
same,glycan array binding signal (z-score),[30],-0.92
same,glycan array binding signal (z-score),[31],2.6
same,glycan array binding signal (z-score),[32],0.907
same,glycan array binding signal (z-score),[33],0.784
same,glycan array binding signal (z-score),[34],1.51
same,glycan array binding signal (z-score),[35],-0.571
same,glycan array binding signal (z-score),[36],-0.489
same,glycan array binding signal (z-score),[37],-0.503
same,glycan array binding signal (z-score),[38],-0.694
same,glycan array binding signal (z-score),[39],-0.927
same,glycan array binding signal (z-score),[40],-0.014
same,glycan array binding signal (z-score),[41],-0.026
same,glycan array binding signal (z-score),[42],0.006
same,glycan array binding signal (z-score),[43],-0.518
same,glycan array binding signal (z-score),[44],-0.552
same,glycan array binding signal (z-score),[45],-0.425

# Part of the list above, with bars between the fields.
binder | measurement | setting | value
B1 | glycan array binding signal (z-score) | [40] | -0.014
same | glycan array binding signal (z-score) | [41] | -0.026
